Laboratory results: PubChem BioAssay AID1224828 (NIAID, 2016)
Purpose: 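Regulators linking TLR4 signalling to p65 nuclear translocation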 (primary screen). System: mouse RAW264.7 G9 macrophage reporter cells (GFP-p65, Tnf promoter-mCherry). Knock-down reagent: siRNA pool against mouse genes, 100 nM. Time to read-out: 2 days siRNA transfection, then 40 min LPS before fixation. Conditions: LPS (Salmonella minnesota R595) at 10 ng/ml. Read-out: 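Microscopy ratio of nuclear to perinuclear-ring GFP-p65 signal, scaled to the plate median; gene score is the average of two replicate robust z-scores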. Scale: p65 translocation robust z-score: higher = more nuclear NF-kappaB p65 after LPS than the plate median; nuclear/cytoplasmic p65 ratio: higher = more nuclear NF-kappaB p65. Hit rule: 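Called active when z exceeds 3.3 or falls under -1.56 (median of Tlr4 controls), giving activity score of at least 50; no calls for control wells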. Calls: active = hit (p65 shift raised or lowered); inactive = no clear change.
Here is a random part of about 17,000 deposited reagents. Over the whole deposit, 762 (4.5%) got an active call. 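Active calls include both raised and lowered p65 entry, mostly lowered; wells with fewer than 50 cells lack a z-score.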 Raw values vary from plate to plate and are shown uncorrected. Entries without a mark were called inactive.

Cripto → p65 translocation robust z-score: 0.62; nuclear/cytoplasmic p65 ratio, rep 1: 1.69; nuclear/cytoplasmic p65 ratio, rep 2: 1.52; low cell count flag: enough cells to score
Cers5 → p65 translocation robust z-score: -1.01; nuclear/cytoplasmic p65 ratio, rep 1: 1.37; nuclear/cytoplasmic p65 ratio, rep 2: 1.33; low cell count flag: enough cells to score
Ifitm2 → p65 translocation robust z-score: -1.25; nuclear/cytoplasmic p65 ratio, rep 1: 1.36; nuclear/cytoplasmic p65 ratio, rep 2: 1.63; low cell count flag: enough cells to score
Or4k52 → p65 translocation robust z-score: 0.3; nuclear/cytoplasmic p65 ratio, rep 1: 1.65; nuclear/cytoplasmic p65 ratio, rep 2: 1.55; low cell count flag: enough cells to score
Fam24a → p65 translocation robust z-score: -0.55; nuclear/cytoplasmic p65 ratio, rep 1: 1.35; nuclear/cytoplasmic p65 ratio, rep 2: 1.32; low cell count flag: enough cells to score
Lrrc23 → p65 translocation robust z-score: -2.35 (active); nuclear/cytoplasmic p65 ratio, rep 1: 1.35; nuclear/cytoplasmic p65 ratio, rep 2: 1.16; low cell count flag: enough cells to score
Sult2a2 → p65 translocation robust z-score: 2.06; nuclear/cytoplasmic p65 ratio, rep 1: 1.7; nuclear/cytoplasmic p65 ratio, rep 2: 2; low cell count flag: enough cells to score
Ptprz1 → p65 translocation robust z-score: 0.78; nuclear/cytoplasmic p65 ratio, rep 1: 1.62; nuclear/cytoplasmic p65 ratio, rep 2: 1.63; low cell count flag: enough cells to score
Zdhhc2 → p65 translocation robust z-score: -0.6; nuclear/cytoplasmic p65 ratio, rep 1: 1.46; nuclear/cytoplasmic p65 ratio, rep 2: 1.18; low cell count flag: enough cells to score
Ptgfr → p65 translocation robust z-score: -1.6 (active); nuclear/cytoplasmic p65 ratio, rep 1: 1.28; nuclear/cytoplasmic p65 ratio, rep 2: 1.36; low cell count flag: enough cells to score
C1qtnf1 → p65 translocation robust z-score: -1.07; nuclear/cytoplasmic p65 ratio, rep 1: 1.29; nuclear/cytoplasmic p65 ratio, rep 2: 1.3; low cell count flag: enough cells to score
Klk4 → p65 translocation robust z-score: -0.12; nuclear/cytoplasmic p65 ratio, rep 1: 1.47; nuclear/cytoplasmic p65 ratio, rep 2: 1.47; low cell count flag: enough cells to score
Med22 → nuclear/cytoplasmic p65 ratio, rep 1: 1.34; nuclear/cytoplasmic p65 ratio, rep 2: 1.29; low cell count flag: fewer than 50 cells per well; well left out of scoring
Prelp → p65 translocation robust z-score: 0.49; nuclear/cytoplasmic p65 ratio, rep 1: 1.49; nuclear/cytoplasmic p65 ratio, rep 2: 1.23; low cell count flag: enough cells to score

Part of the list above, limited to “nuclear/cytoplasmic p65 ratio, rep 1”:
Sult2a2 = 1.7
Ptprz1 = 1.62
